According to patent US20210063414A1, “METHODS FOR PREVENTING AND/OR TREATING BONE LOSS CONDITIONS BY MODULATING IRISIN” (Dana-Farber Cancer Institute, Inc., priority 2018, published 2021):
No constants are given. Whether binding was seen depends on the method and setting. For some assays here: In cells and extracts the contact can be indirect. Some binding calls cover weakened binding; strength is not graded here. Tags and fused reporters may be left off the sequences shown.

The chains behind the UniProt entries cited, without tags or fusion partners. Where a name states a change or a piece, a line headed by the entry shows the natural chain unless it says otherwise. Residues count along the entry.
UniProt P56199: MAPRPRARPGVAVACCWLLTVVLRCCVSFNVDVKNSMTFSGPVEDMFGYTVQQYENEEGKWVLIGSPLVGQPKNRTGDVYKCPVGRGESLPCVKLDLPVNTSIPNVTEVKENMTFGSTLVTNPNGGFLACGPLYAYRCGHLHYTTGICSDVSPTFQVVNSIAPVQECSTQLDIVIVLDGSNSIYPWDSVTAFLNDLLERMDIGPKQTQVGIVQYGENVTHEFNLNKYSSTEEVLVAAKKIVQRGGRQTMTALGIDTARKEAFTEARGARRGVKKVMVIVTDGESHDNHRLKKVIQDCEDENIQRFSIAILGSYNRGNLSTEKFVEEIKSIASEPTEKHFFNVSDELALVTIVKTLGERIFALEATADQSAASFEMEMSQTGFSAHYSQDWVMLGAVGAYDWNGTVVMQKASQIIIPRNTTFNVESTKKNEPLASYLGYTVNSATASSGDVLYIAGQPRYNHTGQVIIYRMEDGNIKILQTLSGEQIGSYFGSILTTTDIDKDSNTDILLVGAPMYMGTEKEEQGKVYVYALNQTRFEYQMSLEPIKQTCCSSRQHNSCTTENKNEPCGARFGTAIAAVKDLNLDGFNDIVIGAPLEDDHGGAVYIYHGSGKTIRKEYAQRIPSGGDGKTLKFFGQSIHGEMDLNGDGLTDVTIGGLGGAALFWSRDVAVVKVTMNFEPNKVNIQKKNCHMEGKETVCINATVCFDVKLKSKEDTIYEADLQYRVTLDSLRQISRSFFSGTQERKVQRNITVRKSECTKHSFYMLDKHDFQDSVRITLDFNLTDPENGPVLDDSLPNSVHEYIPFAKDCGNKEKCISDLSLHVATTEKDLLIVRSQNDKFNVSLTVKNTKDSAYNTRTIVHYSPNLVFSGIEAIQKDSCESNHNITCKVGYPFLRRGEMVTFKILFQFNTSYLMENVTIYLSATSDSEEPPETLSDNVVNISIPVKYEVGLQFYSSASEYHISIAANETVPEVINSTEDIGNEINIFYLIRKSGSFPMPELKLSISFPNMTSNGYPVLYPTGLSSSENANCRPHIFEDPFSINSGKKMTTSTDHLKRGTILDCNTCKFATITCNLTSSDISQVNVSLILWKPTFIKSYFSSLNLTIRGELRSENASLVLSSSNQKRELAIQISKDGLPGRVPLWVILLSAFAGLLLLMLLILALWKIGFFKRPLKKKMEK
UniProt P05556: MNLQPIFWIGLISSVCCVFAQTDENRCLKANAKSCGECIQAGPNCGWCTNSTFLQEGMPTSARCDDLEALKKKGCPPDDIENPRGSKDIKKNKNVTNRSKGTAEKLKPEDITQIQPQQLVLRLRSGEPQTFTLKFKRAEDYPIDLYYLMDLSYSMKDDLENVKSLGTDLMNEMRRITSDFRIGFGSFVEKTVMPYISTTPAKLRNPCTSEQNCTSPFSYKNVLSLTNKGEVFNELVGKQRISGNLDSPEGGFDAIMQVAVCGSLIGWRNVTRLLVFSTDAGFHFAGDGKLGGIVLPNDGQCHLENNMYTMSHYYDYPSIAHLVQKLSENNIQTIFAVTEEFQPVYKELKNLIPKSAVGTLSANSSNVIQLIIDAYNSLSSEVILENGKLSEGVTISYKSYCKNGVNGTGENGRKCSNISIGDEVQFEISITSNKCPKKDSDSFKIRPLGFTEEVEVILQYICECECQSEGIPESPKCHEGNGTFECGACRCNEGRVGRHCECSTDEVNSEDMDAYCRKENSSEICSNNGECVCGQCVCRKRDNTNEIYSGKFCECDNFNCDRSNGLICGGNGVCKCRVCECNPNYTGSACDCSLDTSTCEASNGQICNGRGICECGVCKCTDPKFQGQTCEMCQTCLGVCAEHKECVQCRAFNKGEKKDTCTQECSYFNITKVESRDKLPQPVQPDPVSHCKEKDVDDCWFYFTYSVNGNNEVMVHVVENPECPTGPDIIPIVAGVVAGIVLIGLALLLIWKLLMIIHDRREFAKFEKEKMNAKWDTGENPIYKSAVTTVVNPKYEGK
UniProt P06756: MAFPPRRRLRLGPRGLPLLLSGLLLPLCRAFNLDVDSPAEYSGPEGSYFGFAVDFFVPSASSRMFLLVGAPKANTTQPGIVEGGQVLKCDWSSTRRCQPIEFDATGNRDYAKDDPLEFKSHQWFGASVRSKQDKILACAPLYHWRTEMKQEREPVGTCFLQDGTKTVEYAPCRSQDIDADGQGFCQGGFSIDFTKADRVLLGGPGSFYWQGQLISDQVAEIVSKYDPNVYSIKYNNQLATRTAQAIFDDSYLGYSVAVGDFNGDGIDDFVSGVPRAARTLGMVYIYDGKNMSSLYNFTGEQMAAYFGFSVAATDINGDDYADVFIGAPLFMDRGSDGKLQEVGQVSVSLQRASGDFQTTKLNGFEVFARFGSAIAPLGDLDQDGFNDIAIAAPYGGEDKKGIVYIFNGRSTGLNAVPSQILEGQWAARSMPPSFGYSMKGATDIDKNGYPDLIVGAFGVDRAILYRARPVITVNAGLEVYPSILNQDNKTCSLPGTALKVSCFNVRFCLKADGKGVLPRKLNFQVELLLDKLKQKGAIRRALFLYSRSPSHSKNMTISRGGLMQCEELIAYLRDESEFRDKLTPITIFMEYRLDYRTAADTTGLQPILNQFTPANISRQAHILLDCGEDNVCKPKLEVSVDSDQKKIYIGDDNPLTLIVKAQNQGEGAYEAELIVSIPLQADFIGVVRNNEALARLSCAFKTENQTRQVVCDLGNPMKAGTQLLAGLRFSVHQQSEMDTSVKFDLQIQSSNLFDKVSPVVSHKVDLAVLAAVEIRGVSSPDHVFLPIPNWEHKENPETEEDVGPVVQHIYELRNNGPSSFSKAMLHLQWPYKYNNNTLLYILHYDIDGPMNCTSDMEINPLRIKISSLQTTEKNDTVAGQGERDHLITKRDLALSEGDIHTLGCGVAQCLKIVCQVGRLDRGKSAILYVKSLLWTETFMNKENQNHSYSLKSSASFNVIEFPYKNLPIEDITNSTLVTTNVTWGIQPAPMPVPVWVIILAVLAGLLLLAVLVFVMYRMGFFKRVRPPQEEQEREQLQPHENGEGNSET
UniProt Q9UKX5: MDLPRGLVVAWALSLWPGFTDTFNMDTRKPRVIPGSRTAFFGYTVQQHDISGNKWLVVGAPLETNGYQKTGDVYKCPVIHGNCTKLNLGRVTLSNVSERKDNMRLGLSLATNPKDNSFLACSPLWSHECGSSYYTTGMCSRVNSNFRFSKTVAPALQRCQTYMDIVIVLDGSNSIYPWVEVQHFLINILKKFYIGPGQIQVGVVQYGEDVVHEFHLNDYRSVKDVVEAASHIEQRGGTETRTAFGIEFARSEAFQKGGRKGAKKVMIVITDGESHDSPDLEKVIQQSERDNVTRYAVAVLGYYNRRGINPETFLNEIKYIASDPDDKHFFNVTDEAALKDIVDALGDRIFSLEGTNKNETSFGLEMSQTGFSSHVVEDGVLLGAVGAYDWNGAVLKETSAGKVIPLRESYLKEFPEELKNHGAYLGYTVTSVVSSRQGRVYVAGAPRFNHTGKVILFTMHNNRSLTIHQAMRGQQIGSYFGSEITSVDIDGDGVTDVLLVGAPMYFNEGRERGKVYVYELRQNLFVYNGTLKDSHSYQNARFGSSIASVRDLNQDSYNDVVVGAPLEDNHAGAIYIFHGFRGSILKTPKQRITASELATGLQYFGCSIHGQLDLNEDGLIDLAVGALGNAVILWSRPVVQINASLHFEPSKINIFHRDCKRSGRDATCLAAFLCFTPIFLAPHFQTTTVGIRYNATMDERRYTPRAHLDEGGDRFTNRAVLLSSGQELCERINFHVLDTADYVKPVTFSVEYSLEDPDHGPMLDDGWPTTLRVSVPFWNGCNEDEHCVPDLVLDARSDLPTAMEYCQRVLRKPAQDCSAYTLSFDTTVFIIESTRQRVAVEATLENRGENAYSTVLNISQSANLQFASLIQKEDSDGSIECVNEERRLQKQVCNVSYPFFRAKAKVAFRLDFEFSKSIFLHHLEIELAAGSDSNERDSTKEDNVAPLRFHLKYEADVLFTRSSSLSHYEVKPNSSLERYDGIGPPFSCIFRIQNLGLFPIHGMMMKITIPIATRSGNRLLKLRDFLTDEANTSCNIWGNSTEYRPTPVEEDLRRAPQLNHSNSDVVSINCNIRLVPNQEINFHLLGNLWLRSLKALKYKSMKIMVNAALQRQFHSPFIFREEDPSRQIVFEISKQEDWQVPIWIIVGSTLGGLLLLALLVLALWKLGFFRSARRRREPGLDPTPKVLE
UniProt P13612: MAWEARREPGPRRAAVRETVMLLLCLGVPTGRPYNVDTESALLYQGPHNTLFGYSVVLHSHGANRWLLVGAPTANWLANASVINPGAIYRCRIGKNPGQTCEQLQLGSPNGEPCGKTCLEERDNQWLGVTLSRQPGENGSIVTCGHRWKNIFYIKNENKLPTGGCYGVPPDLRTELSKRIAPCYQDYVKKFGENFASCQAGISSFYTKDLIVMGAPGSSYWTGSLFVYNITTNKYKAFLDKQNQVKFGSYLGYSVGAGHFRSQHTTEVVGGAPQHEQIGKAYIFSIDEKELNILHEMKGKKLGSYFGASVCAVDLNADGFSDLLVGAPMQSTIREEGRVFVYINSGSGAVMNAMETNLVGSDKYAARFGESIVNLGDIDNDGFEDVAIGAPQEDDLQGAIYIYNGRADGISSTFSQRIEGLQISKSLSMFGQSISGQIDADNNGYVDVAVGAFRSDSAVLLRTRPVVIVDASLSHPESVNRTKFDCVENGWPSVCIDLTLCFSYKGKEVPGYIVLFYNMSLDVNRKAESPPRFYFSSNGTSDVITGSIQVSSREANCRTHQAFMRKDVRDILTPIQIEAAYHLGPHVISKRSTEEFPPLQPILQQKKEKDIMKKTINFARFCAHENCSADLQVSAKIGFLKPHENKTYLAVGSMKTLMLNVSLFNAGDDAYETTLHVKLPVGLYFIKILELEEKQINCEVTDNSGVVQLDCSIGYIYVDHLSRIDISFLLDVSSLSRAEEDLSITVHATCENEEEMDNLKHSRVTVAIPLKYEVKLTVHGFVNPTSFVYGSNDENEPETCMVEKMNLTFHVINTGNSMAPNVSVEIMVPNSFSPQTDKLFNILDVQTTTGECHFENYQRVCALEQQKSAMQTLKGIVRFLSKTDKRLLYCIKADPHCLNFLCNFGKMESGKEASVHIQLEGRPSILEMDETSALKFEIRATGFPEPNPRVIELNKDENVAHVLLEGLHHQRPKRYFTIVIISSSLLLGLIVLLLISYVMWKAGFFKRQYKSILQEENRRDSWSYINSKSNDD
UniProt P09055, residues 21-798: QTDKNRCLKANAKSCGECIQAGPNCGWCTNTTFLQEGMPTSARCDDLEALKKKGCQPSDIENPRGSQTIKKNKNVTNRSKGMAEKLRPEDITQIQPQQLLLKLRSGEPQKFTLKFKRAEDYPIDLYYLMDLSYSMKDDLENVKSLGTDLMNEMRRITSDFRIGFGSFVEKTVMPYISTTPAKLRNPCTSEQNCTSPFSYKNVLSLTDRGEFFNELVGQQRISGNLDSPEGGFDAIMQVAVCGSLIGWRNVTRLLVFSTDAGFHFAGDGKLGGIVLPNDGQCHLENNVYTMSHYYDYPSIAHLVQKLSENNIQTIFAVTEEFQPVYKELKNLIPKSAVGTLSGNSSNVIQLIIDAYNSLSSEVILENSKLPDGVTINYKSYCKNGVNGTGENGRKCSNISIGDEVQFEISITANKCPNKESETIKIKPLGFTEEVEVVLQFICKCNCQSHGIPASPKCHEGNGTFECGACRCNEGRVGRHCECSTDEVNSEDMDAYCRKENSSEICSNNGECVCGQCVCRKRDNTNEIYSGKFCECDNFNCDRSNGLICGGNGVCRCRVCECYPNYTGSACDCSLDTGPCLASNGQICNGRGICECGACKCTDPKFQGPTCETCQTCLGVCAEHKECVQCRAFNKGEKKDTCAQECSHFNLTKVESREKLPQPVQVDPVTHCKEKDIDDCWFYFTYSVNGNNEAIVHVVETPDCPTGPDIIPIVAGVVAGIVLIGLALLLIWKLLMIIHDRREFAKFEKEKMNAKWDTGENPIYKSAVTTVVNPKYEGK

What was measured:
[1] = target: T1, Recombinant Mouse Integrin alpha V beta 5 Protein, CF (R&D Systems, Cat. # 7706-AV-050) (mouse) (UniProt P43406+O70309); experiment: protein-protein binding assay with purified irisin and integrin complexes
[2] = target: T2, Recombinant Human Integrin alpha 1 beta 1 Protein, CF (R&D Systems, Cat. # 7064-AB-025) (human) (UniProt P56199+P05556); experiment: as above
[3] = target: T3, Recombinant Human Integrin alpha V beta 5 Protein, CF (R&D Systems, Cat. # 2528-AV-050) (human) (UniProt P06756+P18084); experiment: as above
[4] = target: T1, Recombinant Mouse Integrin alpha V beta 5 Protein, CF (R&D Systems, Cat. # 7706-AV-050) (mouse); experiment: summary of the co-precipitation and cell experiments
[5] = target: T4, Recombinant Human Integrin alpha V beta 1 Protein, CF (R&D Systems, Cat. # 6579-AV-025) (human) (UniProt P06756+P05556); experiment: as above
[6] = target: T3, Recombinant Human Integrin alpha V beta 5 Protein, CF (R&D Systems, Cat. # 2528-AV-050) (human); experiment: as above
[7] = target: T1, Recombinant Mouse Integrin alpha V beta 5 Protein, CF (R&D Systems, Cat. # 7706-AV-050) (mouse); experiment: co-precipitation: 100 nM flag-tagged irisin with 5 nM his-tag integrins, Ni-NTA agarose, immunoblot
[8] = target: T3, Recombinant Human Integrin alpha V beta 5 Protein, CF (R&D Systems, Cat. # 2528-AV-050) (human); experiment: as above
[9] = target: Recombinant Human Integrin alpha 9 beta 1 Protein, CF (R&D Systems, Cat. # 5438-A9-050) (human) (UniProt Q13797+P05556); experiment: co-precipitation: 100 nM flag-tag irisin with 5 nM his-tag integrin, anti-his-tag agarose, anti-flag immunoblot
[10] = target: T4, Recombinant Human Integrin alpha V beta 1 Protein, CF (R&D Systems, Cat. # 6579-AV-025) (human); experiment: as above
[11] = target: T2, Recombinant Human Integrin alpha 1 beta 1 Protein, CF (R&D Systems, Cat. # 7064-AB-025) (human); experiment: as above
[12] = target: Recombinant Human Integrin alpha 11 beta 1 Protein, CF (R&D Systems, Cat. # 6357-AB-050) (human) (UniProt Q9UKX5+P05556); experiment: as above
[13] = target: Recombinant Human Integrin alpha 4 beta 1 Protein, CF (R&D Systems, Cat. # 5668-A4-050) (human) (UniProt P13612+P05556); experiment: as above
[14] = target: Integrin beta-1 (Itgb1) of MLO-Y4 cells (mouse) (UniProt P09055); experiment: DTSSP cross-linking on MLO-Y4 cells, quantitative proteomic analysis

Measured: binding

B1: Flag-tagged mammalian irisin (Enzo life sciences, Cat. # ADI-908-307-3010) (ligand, not shown: small tags and cut ends)
chain: DSPSAPVNVTVRHLKANSAVVSWDVLEDEVVIGFAISQQKKDVRMLRFIQEVNTTTRSCALWDLEEDTEYIVHVQAISIQGQSPASEPVLFKTPREAEKMASKNKDEVTMKE
not listed: [14]
binds: all other assays above

B2: His-tag recombinant irisin (irisin (human/mouse) with a C-terminal 10 his tag, produced in HEK293 cells) (ligand, not shown: small tags and cut ends)
chain: B1 chain
binds: [14]
